Here are results for 1 substance from paper PMC5297702.

Protein sequences, listed by entry. Tags and fused reporters are not part of them.
UniProt Q9ES67: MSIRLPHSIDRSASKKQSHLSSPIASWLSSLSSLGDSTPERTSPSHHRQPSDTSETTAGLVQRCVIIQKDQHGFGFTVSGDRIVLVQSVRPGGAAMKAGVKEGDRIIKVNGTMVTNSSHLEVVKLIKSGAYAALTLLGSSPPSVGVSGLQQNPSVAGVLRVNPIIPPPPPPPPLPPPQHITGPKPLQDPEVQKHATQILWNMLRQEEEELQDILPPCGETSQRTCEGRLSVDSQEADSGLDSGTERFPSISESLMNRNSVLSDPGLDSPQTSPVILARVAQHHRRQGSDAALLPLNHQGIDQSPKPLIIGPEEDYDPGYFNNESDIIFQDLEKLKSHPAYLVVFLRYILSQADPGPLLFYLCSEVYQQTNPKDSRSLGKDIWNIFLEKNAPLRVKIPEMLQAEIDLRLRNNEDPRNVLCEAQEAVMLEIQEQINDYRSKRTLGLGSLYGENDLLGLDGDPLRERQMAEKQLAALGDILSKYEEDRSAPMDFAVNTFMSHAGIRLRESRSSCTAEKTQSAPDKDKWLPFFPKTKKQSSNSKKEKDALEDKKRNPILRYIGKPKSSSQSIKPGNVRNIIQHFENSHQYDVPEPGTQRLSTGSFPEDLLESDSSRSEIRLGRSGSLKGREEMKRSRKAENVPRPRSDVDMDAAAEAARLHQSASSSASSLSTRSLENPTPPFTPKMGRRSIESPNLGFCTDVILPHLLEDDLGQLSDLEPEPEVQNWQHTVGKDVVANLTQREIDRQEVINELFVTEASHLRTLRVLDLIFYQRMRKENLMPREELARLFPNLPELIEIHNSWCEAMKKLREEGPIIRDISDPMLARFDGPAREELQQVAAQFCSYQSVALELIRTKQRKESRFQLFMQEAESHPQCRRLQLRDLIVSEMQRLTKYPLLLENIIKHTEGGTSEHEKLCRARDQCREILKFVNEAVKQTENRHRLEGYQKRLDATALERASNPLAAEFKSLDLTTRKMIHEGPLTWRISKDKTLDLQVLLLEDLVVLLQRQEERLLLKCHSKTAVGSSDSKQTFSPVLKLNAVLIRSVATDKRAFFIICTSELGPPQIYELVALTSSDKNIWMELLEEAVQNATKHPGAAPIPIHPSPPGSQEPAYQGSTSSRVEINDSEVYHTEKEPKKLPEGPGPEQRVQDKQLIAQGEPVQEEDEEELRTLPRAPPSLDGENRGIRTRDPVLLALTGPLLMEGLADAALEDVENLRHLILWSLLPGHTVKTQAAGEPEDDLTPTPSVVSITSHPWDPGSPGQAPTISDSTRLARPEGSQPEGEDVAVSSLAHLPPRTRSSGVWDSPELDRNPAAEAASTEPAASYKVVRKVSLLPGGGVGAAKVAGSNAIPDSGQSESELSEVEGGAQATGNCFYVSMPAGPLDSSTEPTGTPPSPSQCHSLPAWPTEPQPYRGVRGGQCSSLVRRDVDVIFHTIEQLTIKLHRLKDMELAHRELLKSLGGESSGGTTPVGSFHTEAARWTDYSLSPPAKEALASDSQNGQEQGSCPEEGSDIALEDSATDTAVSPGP
UniProt P07825: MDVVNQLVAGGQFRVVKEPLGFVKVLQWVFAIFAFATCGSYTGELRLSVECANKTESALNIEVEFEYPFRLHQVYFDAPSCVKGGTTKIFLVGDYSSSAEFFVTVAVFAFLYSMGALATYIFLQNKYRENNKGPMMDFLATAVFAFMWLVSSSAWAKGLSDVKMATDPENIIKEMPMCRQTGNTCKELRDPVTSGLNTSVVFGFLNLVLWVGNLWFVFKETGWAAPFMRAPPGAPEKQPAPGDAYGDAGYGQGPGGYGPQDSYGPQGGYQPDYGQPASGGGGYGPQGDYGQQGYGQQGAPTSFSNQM

This assay addresses Rho guanine nucleotide exchange factor 11 (ARHGEF11) (rat (endogenous in cerebral cortex)) (UniProt Q9ES67). In words: co-IP; lysate of the rat cerebral cortex P2 fraction (150 nM NaCl as printed, 50 mM Tris-HCl pH 7.6, 1% NP-40) incubated overnight with ARHGEF11 (Acris) polyclonal antibodies, protein A agarose; Western blotting for synaptophysin and PSD-95; c-Myc (9E10) antibody as negative control. A general note: In western blotting, separated proteins are transferred to a membrane and probed.

These are yes or no findings as the source states them, for the method shown. Binding seen in cells or lysates may run through a third protein. Some results given as binding are weak or reduced against the parent protein; the word gives no strength.

As to “synaptophysin (from UniProt P07825 1-307)”, the binding result is reported as “binds”.
